In PMC4729485:
Results are given in words; binding and its absence hold for the method and conditions named. In cells and extracts the contact can be indirect. Some results given as binding are weak or reduced against the parent protein; the word gives no strength. Tags and fused reporters may be left off the sequences shown.

Sequences of proteins named here, by UniProt entry; tags and fusion partners are left off. Residues count along the entry.
UniProt Q9FI56, residues 39-929: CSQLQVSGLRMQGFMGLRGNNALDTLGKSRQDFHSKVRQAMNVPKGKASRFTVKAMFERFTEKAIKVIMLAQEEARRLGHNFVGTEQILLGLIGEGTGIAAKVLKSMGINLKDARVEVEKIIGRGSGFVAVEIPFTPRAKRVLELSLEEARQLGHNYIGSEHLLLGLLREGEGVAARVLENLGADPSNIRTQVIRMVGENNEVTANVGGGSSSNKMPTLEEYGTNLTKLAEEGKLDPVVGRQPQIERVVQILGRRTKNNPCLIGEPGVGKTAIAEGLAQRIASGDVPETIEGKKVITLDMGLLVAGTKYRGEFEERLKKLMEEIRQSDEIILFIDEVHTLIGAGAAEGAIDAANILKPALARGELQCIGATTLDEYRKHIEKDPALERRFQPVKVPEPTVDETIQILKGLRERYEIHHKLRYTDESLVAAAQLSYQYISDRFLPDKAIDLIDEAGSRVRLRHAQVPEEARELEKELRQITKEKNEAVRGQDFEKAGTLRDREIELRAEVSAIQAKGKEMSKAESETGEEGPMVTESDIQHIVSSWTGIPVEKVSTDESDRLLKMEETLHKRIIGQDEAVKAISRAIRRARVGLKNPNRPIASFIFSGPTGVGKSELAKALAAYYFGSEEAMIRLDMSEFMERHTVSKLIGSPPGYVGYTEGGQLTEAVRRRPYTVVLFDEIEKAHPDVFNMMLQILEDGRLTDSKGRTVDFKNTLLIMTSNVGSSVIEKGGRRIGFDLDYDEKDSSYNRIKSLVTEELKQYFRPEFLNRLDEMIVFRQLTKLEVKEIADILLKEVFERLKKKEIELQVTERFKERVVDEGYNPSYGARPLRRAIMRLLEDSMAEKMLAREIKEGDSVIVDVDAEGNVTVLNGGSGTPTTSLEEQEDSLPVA

Target: ClpC1-MYC (MYC-tagged Arabidopsis ClpC1) (Arabidopsis thaliana) (UniProt Q9FI56)
Assay: co-IP; protein extracts of N. benthamiana leaves transiently producing DXS-GFP alone or together with ClpC1-MYC; IP with anti-MYC antibodies, immunoblot with anti-GFP or anti-MYC sera

binding: binds
B1: DXS-GFP (GFP-tagged Arabidopsis deoxyxylulose 5-phosphate synthase) (enzyme, UniProt Q38854 59-717)
chain: ASLAEKGEYYSNRPPTPLLDTINYPIHMKNLSVKELKQLSDELRSDVIFNVSKTGGHLGSSLGVVELTVALHYIFNTPQDKILWDVGHQSYPHKILTGRRGKMPTMRQTNGLSGFTKRGESEHDCFGTGHSSTTISAGLGMAVGRDLKGKNNNVVAVIGDGAMTAGQAYEAMNNAGYLDSDMIVILNDNKQVSLPTATLDGPSPPVGALSSALSRLQSNPALRELREVAKGMTKQIGGPMHQLAAKVDEYARGMISGTGSSLFEELGLYYIGPVDGHNIDDLVAILKEVKSTRTTGPVLIHVVTEKGRGYPYAERADDKYHGVVKFDPATGRQFKTTNKTQSYTTYFAEALVAEAEVDKDVVAIHAAMGGGTGLNLFQRRFPTRCFDVGIAEQHAVTFAAGLACEGLKPFCAIYSSFMQRAYDQVVHDVDLQKLPVRFAMDRAGLVGADGPTHCGAFDVTFMACLPNMIVMAPSDEADLFNMVATAVAIDDRPSCFRYPRGNGIGVALPPGNKGVPIEIGKGRILKEGERVALLGYGSAVQSCLGAAVMLEERGLNVTVADARFCKPLDRALIRSLAKSHEVLITVEEGSIGGFGSHVVQFLALDGLLDGKLKWRPMVLPDRYIDHGAPADQLAEAGLMPSHIAATALNLIGAPREALF
